Data as given in PubChem BioAssay AID2685 (National Center for Advancing Translational Sciences (NCATS), 2010).
Some of the results follow. Further columns of the screen follow, without active or inactive calls. The list favours compounds with an active or inconclusive main result. Words in brackets tell the shape of the fitted curve; partial curves, single points and poor fits give uncertain potencies.

Test: qHTS Assay for Lipid Storage Modulators in Drosophila S3 Cells;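 for cell number change: cells counted by Cell Tracker Red CMTPX staining in the red channel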
Details: BODIPY lipid droplet fluorescence, 18-24 h; for cell number change: measured here: cell count max response, cells fed with added oleic acid
Method in brief: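 Laser-scanning cytometry quantifies lipid droplet accumulation (500–530 nm total intensity; droplet/cell object ratio) in oleic acid-fed (400 uM added) Drosophila S3 cells treated with a concentration series. 20 uM Triacsin C defined 100% inhibition.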

[1] = measured here: cell number channel AC50, cells fed with added oleic acid
[2] = measured here: lipid fluorescence (Fed channel) AC50, cells fed with added oleic acid

SMILES | cell number change [%] | AC50 [1] | AC50 [2]
CCCCn1ccnc1C(=O)c1ccc(S(=O)(=O)N(CCOC)CCOC)cc1 | -23.2 | 0.00517 µM [falling, full curve, poor fit] | 
CCc1nc2nc(C)c(NS(=O)(=O)c3ccc(CC(C)C)cc3)c(=O)n2[nH]1 |  |  | 6.51 µM [rising, single point]
COC(=O)Cc1ccc(NC(=O)c2ccc3c(c2)C(=O)N(Cc2ccco2)C3=O)cc1 | -7.92 |  | 23.1 µM [falling, single point]
CCCCn1nnc(NC(=O)COc2ccc(Cl)c(C)c2)n1 | -111 | 23.1 µM [falling, partial curve] | 20.6 µM [falling, partial curve]
CC(=O)CCn1cnc([N+](=O)[O-])n1 | 2.3 | 0.0651 µM [rising, full curve, poor fit] | 
CCN(CCCNC(=O)CCn1c(=S)[nH]c2cc3c(cc2c1=O)OCO3)c1cccc(C)c1 | 368 | 23.1 µM [rising, partial curve] | 29.1 µM [rising, partial curve]
COCCn1c(SCc2ccc(OC)c(F)c2)nnc1-c1ccncc1 |  |  | 1.84 µM [falling, partial curve]
COc1cccc(CN2C(=O)CCC2(C)C(=O)NC2CCCC2)c1 (configuration not stated) | -41.9 | 29.1 µM [falling, single point] | 
Cc1cc(C)nc(N2CCC(C(=O)Nc3ccc4c(c3)CCC4)CC2)n1 | -91.8 | 23.1 µM [falling, partial curve] | 
COc1ccc(C(=O)NC(=S)Nc2ccccc2N2CCN(S(C)(=O)=O)CC2)cc1OC | -0.131 |  | 7.31 µM [falling, single point]
COc1cccc(C(=O)N2CCN(c3ccc(N4CCOCC4)nn3)CC2)c1 | -12.1 |  | 
C=CCNC(=O)/C(C#N)=C/c1c(N(Cc2ccccc2)Cc2ccccc2)nc2ccccn2c1=O | -16.2 |  | 
CCOc1cc(N2CCOCC2)c(OCC)cc1NC(=O)COC(=O)CCOc1cc(C)ccc1C | 5.49 |  | 
COc1ccc(S(=O)(=O)Cc2ccc(C(=O)N3CC(C)CC(C)C3)o2)cc1 (configuration not stated) | 10.1 |  | 
O=C(CCNC(=O)c1ccc(Br)cc1)OCc1ccccc1Cl | 4.28 |  | 25.9 µM [falling, partial curve, poor fit]
Cc1ccc(Cn2nc(-c3ccccc3)nc2-c2ccccc2)cc1 |  | 1.46 µM [rising, full curve, poor fit] | 

SMILES | cell number change [%] | AC50 [1] | AC50 [2]
COC(=O)Cn1c(=O)c2c(nc(Br)n2Cc2ccccc2Cl)n(C)c1=O | 29.6 |  | 4.61 µM [rising, partial curve, poor fit]
CC(C)N(CCNS(=O)(=O)c1ccc(Cl)cc1)C(C)C | -15.1 | 4.11 µM [falling, single point] | 6.51 µM [falling, single point]
COc1ccc(OCc2nc3c4c(ncn3n2)-c2ccccc2CC42CCCC2)cc1 | 23.4 | 2.31 µM [rising, full curve, poor fit] | 
COc1ccc(C)cc1NC(=O)c1cccc(-c2ccc(OC(C)=O)cc2)c1 | -7.62 |  | 6.51 µM [rising, single point]
Cc1cc2c(c(N3CCOCC3)n1)C(=O)OC2 | 30.4 | 8.2 µM [rising, partial curve, poor fit] | 
CCCCn1c(O)c(N=Nc2ccccn2)c2ccccc21 | 7.71 |  | 32.6 µM [falling, single point]
Cc1ccc(C2(C)NC(=O)N(CC(=O)NC(C)c3ccccc3)C2=O)cc1 (configuration not stated) |  |  | 18.4 µM [rising, partial curve]
Cc1ccc(C(=O)NCC(=O)Nc2ccncc2)cc1 |  |  | 23.1 µM [rising, single point]
O=C(CN1CCN(c2ccc(F)cc2)CC1)Nc1cccc(C(F)(F)F)c1 | 0.204 |  | 
CCC(=O)Nc1ccccc1C(=O)OCC(=O)c1ccc2ccccc2c1 |  | 2.31 µM [rising, single point] | 
C=C1CCC[C@]2(C)C[C@H]3OC(=O)C(CN4CCCCC4CO)[C@H]3CC12 (some centres not stated) | -46.1 | 20.6 µM [falling, partial curve] | 23.1 µM [falling, partial curve]
CN1C(=O)N(C)C(c2cccc([N+](=O)[O-])c2)C2=C1CCCC2=O (configuration not stated) | 7.66 |  | 6.51 µM [rising, single point]
O=C(c1cc(COc2ccc(F)cc2Cl)on1)N1C[C@H]2CC[C@H]1C2 | 6.16 | 6.51 µM [rising, single point] | 
O=[N+]([O-])c1cc(Br)c(Nc2ccccc2)c([N+](=O)[O-])c1 | -9.33 |  | 23.1 µM [falling, partial curve]
COc1ccc(N(CC(=O)Nc2ccccc2F)S(=O)(=O)c2ccc(C)c([N+](=O)[O-])c2)cc1 | -11.7 |  | 29.1 µM [falling, single point]
O=C1C2=C(CCCC2)C(=O)N1c1cccc(OCCBr)c1 | -12.1 |  | 0.517 µM [falling, full curve]

Exported tab-delimited: part of the list above
SMILES	cell number change [%]	AC50 [1]	AC50 [2]
CC(C)N(CCNS(=O)(=O)c1ccc(Cl)cc1)C(C)C	-15.1	4.11 µM [falling, single point]	6.51 µM [falling, single point]
COc1ccc(OCc2nc3c4c(ncn3n2)-c2ccccc2CC42CCCC2)cc1	23.4	2.31 µM [rising, full curve, poor fit]	
